Drawing on PubChem BioAssay AID248 (DTP/NCI, 2004), this text covers survivor count and T/C for 17 molecules.

The experiment concerns L1210 leukemia ip in BDF1 mice, survival T/C. Description: NCI In Vivo Anticancer Drug Screen. Data for tumor model L1210 Leukemia (intraperitoneal) in B6D2F1 (BDF1) mice. As to conditions: higher T/C = longer survival.
Setting [1] is: T/C endpoint: mean survival time, dose: 400.0 mg/kg/injection, schedule: Q01DX009 (ip), vehicle: Klucel (hydroxypropylcellulose) (HPC).
[2] abbreviates: T/C endpoint: mean survival time, dose: 200.0 mg/kg/injection, schedule: Q01DX009 (ip), vehicle: saline with Tween-80.
Setting [3] is: T/C endpoint: mean survival time, dose: 100.0 mg/kg/injection, schedule: Q04DX002 (ip), vehicle: saline with Tween-80.
Setting [4] is: T/C endpoint: mean survival time, dose: 400.0 mg/kg/injection, schedule: Q01DX009 (ip), vehicle: saline with Tween-80.
[5] abbreviates: T/C endpoint: mean survival time, dose: 400.0 mg/kg/injection, schedule: Q01DX001 (ip), vehicle: saline.
Where [6] appears, read: T/C endpoint: mean survival time, dose: 400.0 mg/kg/injection, schedule: Q04DX003 (ip), vehicle: saline with Tween-80.

Each structure is given as a SMILES string. The list does not hold the whole screen: it gathers tests that were run many times, whatever their T/C, doses with no T/C, and many T/C values between a quarter and a half above the control. Further doses and runs are listed elsewhere. T/C: endpoint of the treated group in % of that of the vehicle group. Some entries give survivors of the animals treated and no T/C: the source holds a T/C of zero for them, seemingly a mark for toxic or unscored doses. Some doses without a T/C left all or most animals alive at the check, yet need not have been tolerated: survival well below the control is almost never listed, so the zero probably covers shortened survival too. Survivors were counted at the toxicity check, usually on the fifth day, unless a day is given; later deaths do not show. Schedule codes are those of the source, taken here to give the interval after Q, in days (D) or hours (H), and the number of doses after X. Some molecules as drawn cover several salts, stereoisomers or complexes of the source; a dose is that of the sample tested. For survival time, the PubChem record calls one and a half times the control and up active, and a quarter to a half above the control has no call in these data; cut-offs in other NCI protocols can differ.

As for `CN(C)c1ccc(C=O)cc1[N+](=O)[O-]`, the survivor count under setting [1] is 3 of 6.
Consider `c1ccc(-c2cc(-c3ccccc3)[s+]s2)cc1`, for which, under setting [2], the survivor count is listed as 3 of 6.
As for `C=C(C)C1CCC2(CO)CCC3(C)C(CCC4C5(C)CCC(OC6CCCCO6)C(C)(C)C5CCC43C)C12` (configuration not stated), the survivor count under setting [3] is recorded as 3 of 3.
As to `Cc1c(-c2ccccc2)sc(/N=C/c2cc(Br)cc(Br)c2O)c1C#N`, the survivor count under setting [4] is 3 of 3.
In the case of `CC1(C)N=C(N)N=C(N)N1c1cccc(CO)c1`, the survivor count under setting [5] is given as 0 of 3.
With `O=C1/C(=C\c2ccccc2)C(Br)c2ccccc21` (configuration not stated), the survivor count (T/C endpoint: mean survival time, dose: 100.0 mg/kg/injection, schedule: Q01DX009 (ip), vehicle: water) was 3 of 6; the survivor count (T/C endpoint: mean survival time, dose: 100.0 mg/kg/injection, schedule: Q04DX003 (ip), vehicle: water) is reported as 1 of 6; the survivor count (T/C endpoint: mean survival time, dose: 200.0 mg/kg/injection, schedule: Q01DX009 (ip), vehicle: water) was 1 of 6; the survivor count (T/C endpoint: mean survival time, dose: 200.0 mg/kg/injection, schedule: Q04DX003 (ip), vehicle: water) is recorded as 0 of 6; the survivor count (T/C endpoint: mean survival time, dose: 400.0 mg/kg/injection, schedule: Q04DX003 (ip), vehicle: water) is reported as 6 of 6.
As to `C=C(C)C(=O)[O][Sn]([CH2]CCC)([CH2]CCC)[CH2]CCC`, the survivor count (T/C endpoint: mean survival time, dose: 1.56 mg/kg/injection, schedule: Q01DX009 (ip), vehicle: saline) is 2 of 3; the survivor count (T/C endpoint: mean survival time, dose: 3.12 mg/kg/injection, schedule: Q01DX009 (ip), vehicle: saline) was 1 of 3; the survivor count (T/C endpoint: mean survival time, dose: 6.25 mg/kg/injection, schedule: Q01DX009 (ip), vehicle: saline) is given as 0 of 3; the survivor count (T/C endpoint: mean survival time, dose: 12.5 mg/kg/injection, schedule: Q01DX009 (ip), vehicle: saline) is given as 1 of 3; the survivor count (T/C endpoint: mean survival time, dose: 25.0 mg/kg/injection, schedule: Q01DX009 (ip), vehicle: saline) was 0 of 3; the survivor count (T/C endpoint: mean survival time, dose: 50.0 mg/kg/injection, schedule: Q01DX009 (ip), vehicle: saline) was 0 of 3. Moreover, the survivor count (T/C endpoint: mean survival time, dose: 100.0 mg/kg/injection, schedule: Q01DX009 (ip), vehicle: saline) is recorded as 0 of 3.
Take `CCC(C)CC(C)c1ccncc1` (configuration not stated): the survivor count reads like this: (T/C endpoint: mean survival time, dose: 200.0 mg/kg/injection, schedule: Q01DX001 (ip), vehicle: saline) 0 of 6; under setting [5], 1 of 6.
For the molecule `CCCCCCCCCC(C)NC(=O)CCl` (configuration not stated), the survivor count is, setting by setting: (T/C endpoint: mean survival time, dose: 100.0 mg/kg/injection, schedule: Q01DX009 (ip), vehicle: Klucel (hydroxypropylcellulose) (HPC)) 6 of 6; (T/C endpoint: mean survival time, dose: 200.0 mg/kg/injection, schedule: Q01DX009 (ip), vehicle: Klucel (hydroxypropylcellulose) (HPC)) 6 of 6; under setting [1], 1 of 6.
Turning to `COC(=O)C1=C(C(=O)OC)C2(C)C=CC1O2` (configuration not stated), the survivor count by setting is: (T/C endpoint: mean survival time, dose: 50.0 mg/kg/injection, schedule: Q01DX009 (ip), vehicle: saline with Tween-80) 1 of 6; (T/C endpoint: mean survival time, dose: 100.0 mg/kg/injection, schedule: Q01DX009 (ip), vehicle: saline with Tween-80) 0 of 6; under setting [2], 0 of 6; under setting [4], 0 of 6.
Consider `Cc1cccc(N2CCNCC2)c1`, for which the survivor count under setting [3] is recorded as 0 of 3; the survivor count (T/C endpoint: mean survival time, dose: 100.0 mg/kg/injection, schedule: Q04DX003 (ip), vehicle: saline) is listed as 0 of 6; the survivor count (T/C endpoint: mean survival time, dose: 200.0 mg/kg/injection, schedule: Q04DX002 (ip), vehicle: saline with Tween-80) is 0 of 3; the survivor count (T/C endpoint: mean survival time, dose: 200.0 mg/kg/injection, schedule: Q04DX003 (ip), vehicle: saline) is given as 0 of 6; the survivor count (T/C endpoint: mean survival time, dose: 400.0 mg/kg/injection, schedule: Q04DX002 (ip), vehicle: saline with Tween-80) is on record as 0 of 3; the survivor count (T/C endpoint: mean survival time, dose: 400.0 mg/kg/injection, schedule: Q04DX003 (ip), vehicle: saline) is on record as 0 of 6.
For `NC(=O)NC(=O)/C=C/C(=O)O`, the survivor count reads like this: under setting [2], 3 of 6; under setting [6], 2 of 6.
As for `ClCCN(CCCl)c1ccc(Nc2nc(Nc3ccc(N(CCCl)CCCl)cc3)c3ccccc3n2)cc1`, for the setting “T/C endpoint: mean survival time, dose: 100.0 mg/kg/injection, schedule: Q04DX002 (ip), vehicle: saline”, the T/C is 138 % of control.
Turning to `Cc1ccc(COC(=O)Nc2ccc(C)c(NC(=O)OCc3ccc(C)cc3)c2)cc1`, the survivor count under setting [2] was 6 of 6.
As to `CCCCCCCCOB(OCCCCCCCC)OCCCCCCCC`, the survivor count is, setting by setting: under setting [4], 0 of 6; under setting [6], 0 of 6.
For `Cc1cc(Cl)nc(Cl)c1C#N`, the survivor count is, setting by setting: under setting [1], 1 of 6; (T/C endpoint: mean survival time, dose: 400.0 mg/kg/injection, schedule: Q04DX003 (ip), vehicle: Klucel (hydroxypropylcellulose) (HPC)) 0 of 6.
As for `NC(=O)c1[nH]nc(C2OC(CO)C(O)C2O)c1O` (configuration not stated), the T/C (T/C endpoint: mean survival time, dose: 1.25 mg/kg/injection, schedule: Q01DX009 (ip), vehicle: saline) is 135 % of control; the T/C (T/C endpoint: mean survival time, dose: 2.5 mg/kg/injection, schedule: Q04DX003 (ip), vehicle: saline) was 129 % of control; the T/C (T/C endpoint: mean survival time, dose: 10.0 mg/kg/injection, schedule: Q04DX003 (ip), vehicle: saline) was 141 % of control; the T/C (T/C endpoint: mean survival time, dose: 15.0 mg/kg/injection, schedule: Q04DX003 (ip), vehicle: saline) was 129 % of control; the T/C (T/C endpoint: median survival time, dose: 16.0 mg/kg/injection, schedule: Q04DX003 (ip), vehicle: saline, evaluated on day 5) was 139 % of control; the T/C (T/C endpoint: median survival time, dose: 16.0 mg/kg/injection, schedule: Q04DX003 (ip), vehicle: saline, evaluated on day 8) is 128 % of control. Moreover, where the note is “T/C endpoint: mean survival time, dose: 10.0 mg/kg/injection, schedule: Q01DX009 (ip), vehicle: saline”, the survivor count was 6 of 6.
